Laboratory results: PubChem BioAssay AID743458 (Peter MacCallum Cancer Centre, 2014)

Screen: 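Retest earlier hits with independent siRNAs per gene for restoring vorinostat sensitivity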 (follow-up of hits)
Cells: human HCT116-VR colon cancer cells made resistant to vorinostat
Knock-down reagent: single siRNA or pool against human genes, 25 nM per single siRNA
Timing: about 72 h after transfection, including 24 h of drug
Challenge: vorinostat, 2.5 µM final, for 24 h
Read-out: 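Cell viability by fluorescence and apoptosis by caspase 3/7 luminescence under vorinostat, background-corrected, averaged across two plate copies and given as fold change versus mock transfection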
Direction: viability relative to mock: higher = more living cells than mock; caspase activity relative to mock: higher = more apoptosis than mock
Hit rule: 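An siRNA counts as active if classed as reduced viability or as caspase activation, otherwise inactive; a hit class needed wells that remained healthy in the absence of drug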
The whole screen tested about 1,800 reagents; this is an unselected part. Over the whole deposit, 732 (41%) are marked active. 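Calls are per siRNA reagent; a gene was deemed confirmed only if most of its four siRNAs scored.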 Unmarked entries are inactive. Reagents against one gene are numbered here.

| gene | reagent | viability relative to mock | caspase activity relative to mock | viability hit class | caspase hit class |
| --- | --- | --- | --- | --- | --- |
| ATP7B (ATPase copper transporting beta) | 1 | 0.78 | 2.42 | no change | no change |
| ATP7B (ATPase copper transporting beta) | 2 | 1.04 | 1.26 | no change | no change |
| ATP7B (ATPase copper transporting beta) | 3 | 1.06 | 1.24 | no change | no change |
| ATP7B (ATPase copper transporting beta) | 4 | 0.92 (active) | 3.56 | no change | caspase activation |
| HOXA2 (homeobox A2) | 1 | 0.7 (active) | 3.66 | no change | caspase activation |
| HOXA2 (homeobox A2) | 2 | 0.87 | 2.04 | no change | no change |
| HOXA2 (homeobox A2) | 3 | 0.95 | 2.1 | no change | no change |
| HOXA2 (homeobox A2) | 4 | 0.9 | 1.36 | no change | no change |
| C1RL (complement C1r subcomponent like) | 1 | 0.83 (active) | 3.21 | no change | caspase activation |
| C1RL (complement C1r subcomponent like) | 2 | 0.46 (active) | 1.38 | reduced viability | no change |
| C1RL (complement C1r subcomponent like) | 3 | 0.76 | 1.03 | no change | no change |
| C1RL (complement C1r subcomponent like) | 4 | 0.84 | 2.5 | no change | no change |
| PLA2G4A (phospholipase A2 group IVA) | 1 | 0.68 | 1.93 | no change | no change |
| PLA2G4A (phospholipase A2 group IVA) | 2 | 0.86 | 0.84 | no change | no change |
| PLA2G4A (phospholipase A2 group IVA) | 3 | 0.78 (active) | 3.05 | no change | caspase activation |
| PLA2G4A (phospholipase A2 group IVA) | 4 | 0.73 | 2.28 | no change | no change |
| RLN3 (relaxin 3) | 1 | 0.72 (active) | 3.06 | no change | caspase activation |
| RLN3 (relaxin 3) | 2 | 0.72 (active) | 3.23 | no change | caspase activation |
| RLN3 (relaxin 3) | 3 | 0.55 (active) | 4.7 | reduced viability | caspase activation |
| RLN3 (relaxin 3) | 4 | 0.68 (active) | 4.42 | no change | caspase activation |
| FOXL1 (forkhead box L1) | 1 | 1.16 | 1.42 | no change | no change |
| FOXL1 (forkhead box L1) | 2 | 0.65 (active) | 4.32 | no change | caspase activation |
| FOXL1 (forkhead box L1) | 3 | 0.86 | 1.96 | no change | no change |
| FOXL1 (forkhead box L1) | 4 | 0.66 | 2.46 | no change | no change |

Records listed so far whose gene name begins with P or p (4):
| gene | reagent | viability relative to mock | caspase activity relative to mock | viability hit class | caspase hit class |
| --- | --- | --- | --- | --- | --- |
| PLA2G4A (phospholipase A2 group IVA) | 1 | 0.68 | 1.93 | no change | no change |
| PLA2G4A (phospholipase A2 group IVA) | 2 | 0.86 | 0.84 | no change | no change |
| PLA2G4A (phospholipase A2 group IVA) | 3 | 0.78 (active) | 3.05 | no change | caspase activation |
| PLA2G4A (phospholipase A2 group IVA) | 4 | 0.73 | 2.28 | no change | no change |
